From publication PMC12080455
No constants are given. Whether binding was seen depends on the method and setting. In cells and extracts the contact can be indirect. A yes stands for co-enrichment or nearness to the bait. Other partners may have been found. Each block holds one molecule with its values, some of them ahead of it.

Chains of the proteins cited; added tags and fusions are not shown. Lines headed by an entry give the natural chain unless they say otherwise; changes in a name come on top.
UniProt Q8TDI0: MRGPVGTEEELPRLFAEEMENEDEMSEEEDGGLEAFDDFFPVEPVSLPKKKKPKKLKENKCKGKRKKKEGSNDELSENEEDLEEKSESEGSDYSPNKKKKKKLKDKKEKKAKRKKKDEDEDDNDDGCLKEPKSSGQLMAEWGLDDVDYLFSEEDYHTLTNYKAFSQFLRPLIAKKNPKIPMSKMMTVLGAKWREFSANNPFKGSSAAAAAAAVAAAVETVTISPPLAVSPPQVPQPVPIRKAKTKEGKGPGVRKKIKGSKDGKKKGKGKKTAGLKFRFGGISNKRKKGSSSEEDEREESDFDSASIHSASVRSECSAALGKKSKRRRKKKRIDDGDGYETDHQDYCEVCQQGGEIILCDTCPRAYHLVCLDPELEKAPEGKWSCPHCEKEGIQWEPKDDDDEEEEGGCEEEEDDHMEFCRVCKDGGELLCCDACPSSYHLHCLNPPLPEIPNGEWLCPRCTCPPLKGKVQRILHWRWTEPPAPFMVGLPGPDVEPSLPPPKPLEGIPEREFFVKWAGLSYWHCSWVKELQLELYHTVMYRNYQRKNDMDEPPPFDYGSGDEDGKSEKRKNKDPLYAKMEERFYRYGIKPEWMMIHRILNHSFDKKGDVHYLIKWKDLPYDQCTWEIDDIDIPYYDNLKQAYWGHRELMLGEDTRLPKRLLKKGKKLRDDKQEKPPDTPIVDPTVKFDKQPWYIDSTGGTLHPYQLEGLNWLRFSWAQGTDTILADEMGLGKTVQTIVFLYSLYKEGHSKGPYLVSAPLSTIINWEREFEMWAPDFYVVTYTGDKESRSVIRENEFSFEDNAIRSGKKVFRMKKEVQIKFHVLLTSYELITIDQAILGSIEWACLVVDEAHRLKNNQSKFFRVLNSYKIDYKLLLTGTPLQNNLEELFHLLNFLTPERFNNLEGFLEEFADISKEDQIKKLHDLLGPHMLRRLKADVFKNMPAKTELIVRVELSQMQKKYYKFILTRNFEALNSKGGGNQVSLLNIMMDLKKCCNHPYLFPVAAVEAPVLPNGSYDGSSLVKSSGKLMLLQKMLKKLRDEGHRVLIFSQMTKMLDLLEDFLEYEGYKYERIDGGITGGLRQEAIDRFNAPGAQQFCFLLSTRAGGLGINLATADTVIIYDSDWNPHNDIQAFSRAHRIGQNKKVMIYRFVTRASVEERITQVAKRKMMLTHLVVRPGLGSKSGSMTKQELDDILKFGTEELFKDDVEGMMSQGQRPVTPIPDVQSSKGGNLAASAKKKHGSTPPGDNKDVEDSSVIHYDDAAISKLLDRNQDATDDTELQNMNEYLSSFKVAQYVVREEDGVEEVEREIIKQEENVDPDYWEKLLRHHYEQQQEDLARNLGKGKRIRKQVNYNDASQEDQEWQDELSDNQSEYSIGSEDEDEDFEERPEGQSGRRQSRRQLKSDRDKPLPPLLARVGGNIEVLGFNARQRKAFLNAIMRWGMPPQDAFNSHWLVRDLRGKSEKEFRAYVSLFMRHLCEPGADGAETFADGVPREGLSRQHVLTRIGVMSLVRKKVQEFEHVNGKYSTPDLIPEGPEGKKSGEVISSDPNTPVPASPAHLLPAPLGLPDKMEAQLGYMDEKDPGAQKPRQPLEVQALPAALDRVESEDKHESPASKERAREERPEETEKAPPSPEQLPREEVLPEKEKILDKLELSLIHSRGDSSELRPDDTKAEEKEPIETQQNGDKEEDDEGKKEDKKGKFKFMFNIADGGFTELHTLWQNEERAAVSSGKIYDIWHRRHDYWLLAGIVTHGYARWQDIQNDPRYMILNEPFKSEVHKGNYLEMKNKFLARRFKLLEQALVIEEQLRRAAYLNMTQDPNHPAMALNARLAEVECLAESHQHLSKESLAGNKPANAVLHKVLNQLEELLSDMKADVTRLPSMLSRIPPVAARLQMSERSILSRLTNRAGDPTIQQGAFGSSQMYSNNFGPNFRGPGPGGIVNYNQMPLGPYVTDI
UniProt Q14839: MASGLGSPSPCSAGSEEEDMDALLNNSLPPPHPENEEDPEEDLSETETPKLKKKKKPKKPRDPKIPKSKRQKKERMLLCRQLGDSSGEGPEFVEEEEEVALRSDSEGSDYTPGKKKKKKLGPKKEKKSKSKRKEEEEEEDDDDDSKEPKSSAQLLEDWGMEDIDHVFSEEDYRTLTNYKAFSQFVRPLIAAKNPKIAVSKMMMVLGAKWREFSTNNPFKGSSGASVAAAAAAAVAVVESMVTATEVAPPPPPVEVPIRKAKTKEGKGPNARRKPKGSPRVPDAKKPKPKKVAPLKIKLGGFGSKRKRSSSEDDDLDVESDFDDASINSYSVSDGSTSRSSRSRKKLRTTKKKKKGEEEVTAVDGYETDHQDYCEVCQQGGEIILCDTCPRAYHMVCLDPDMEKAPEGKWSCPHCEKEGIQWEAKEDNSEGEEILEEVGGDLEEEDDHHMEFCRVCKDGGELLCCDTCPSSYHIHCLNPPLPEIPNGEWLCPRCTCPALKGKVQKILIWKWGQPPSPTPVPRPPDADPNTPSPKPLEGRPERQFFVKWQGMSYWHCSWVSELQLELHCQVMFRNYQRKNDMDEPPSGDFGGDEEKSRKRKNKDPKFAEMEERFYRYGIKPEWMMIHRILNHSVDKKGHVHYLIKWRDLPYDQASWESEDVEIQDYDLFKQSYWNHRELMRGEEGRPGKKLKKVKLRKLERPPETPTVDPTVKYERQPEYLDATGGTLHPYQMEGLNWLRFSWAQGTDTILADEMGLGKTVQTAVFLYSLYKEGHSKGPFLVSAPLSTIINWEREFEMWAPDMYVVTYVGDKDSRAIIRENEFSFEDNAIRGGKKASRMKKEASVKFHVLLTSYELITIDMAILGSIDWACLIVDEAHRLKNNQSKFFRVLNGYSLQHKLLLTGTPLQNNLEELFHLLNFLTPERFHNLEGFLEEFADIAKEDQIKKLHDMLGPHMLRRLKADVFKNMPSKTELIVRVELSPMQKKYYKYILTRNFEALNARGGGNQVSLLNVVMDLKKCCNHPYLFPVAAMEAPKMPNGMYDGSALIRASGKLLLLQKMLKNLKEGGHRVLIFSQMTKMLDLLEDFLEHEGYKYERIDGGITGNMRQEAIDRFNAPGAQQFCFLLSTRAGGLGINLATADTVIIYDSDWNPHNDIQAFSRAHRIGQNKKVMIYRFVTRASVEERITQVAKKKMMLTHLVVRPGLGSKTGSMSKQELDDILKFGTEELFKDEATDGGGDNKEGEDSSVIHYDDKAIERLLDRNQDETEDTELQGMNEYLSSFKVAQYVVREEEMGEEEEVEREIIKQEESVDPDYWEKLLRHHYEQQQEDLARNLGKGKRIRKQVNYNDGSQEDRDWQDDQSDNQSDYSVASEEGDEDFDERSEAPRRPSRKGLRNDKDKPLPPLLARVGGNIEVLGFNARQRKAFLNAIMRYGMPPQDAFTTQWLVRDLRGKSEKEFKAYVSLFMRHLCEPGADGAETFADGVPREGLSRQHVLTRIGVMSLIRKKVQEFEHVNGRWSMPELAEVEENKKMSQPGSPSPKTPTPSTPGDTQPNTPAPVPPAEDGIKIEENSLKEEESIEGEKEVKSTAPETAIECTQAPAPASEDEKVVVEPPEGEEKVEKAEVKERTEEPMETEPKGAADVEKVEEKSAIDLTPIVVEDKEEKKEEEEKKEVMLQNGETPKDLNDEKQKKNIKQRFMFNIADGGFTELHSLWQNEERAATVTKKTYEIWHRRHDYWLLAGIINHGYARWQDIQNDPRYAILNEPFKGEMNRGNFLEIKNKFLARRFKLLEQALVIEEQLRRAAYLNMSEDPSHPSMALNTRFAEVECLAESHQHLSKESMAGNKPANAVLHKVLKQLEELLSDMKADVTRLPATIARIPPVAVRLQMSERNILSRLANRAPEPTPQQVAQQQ
UniProt Q9BY89: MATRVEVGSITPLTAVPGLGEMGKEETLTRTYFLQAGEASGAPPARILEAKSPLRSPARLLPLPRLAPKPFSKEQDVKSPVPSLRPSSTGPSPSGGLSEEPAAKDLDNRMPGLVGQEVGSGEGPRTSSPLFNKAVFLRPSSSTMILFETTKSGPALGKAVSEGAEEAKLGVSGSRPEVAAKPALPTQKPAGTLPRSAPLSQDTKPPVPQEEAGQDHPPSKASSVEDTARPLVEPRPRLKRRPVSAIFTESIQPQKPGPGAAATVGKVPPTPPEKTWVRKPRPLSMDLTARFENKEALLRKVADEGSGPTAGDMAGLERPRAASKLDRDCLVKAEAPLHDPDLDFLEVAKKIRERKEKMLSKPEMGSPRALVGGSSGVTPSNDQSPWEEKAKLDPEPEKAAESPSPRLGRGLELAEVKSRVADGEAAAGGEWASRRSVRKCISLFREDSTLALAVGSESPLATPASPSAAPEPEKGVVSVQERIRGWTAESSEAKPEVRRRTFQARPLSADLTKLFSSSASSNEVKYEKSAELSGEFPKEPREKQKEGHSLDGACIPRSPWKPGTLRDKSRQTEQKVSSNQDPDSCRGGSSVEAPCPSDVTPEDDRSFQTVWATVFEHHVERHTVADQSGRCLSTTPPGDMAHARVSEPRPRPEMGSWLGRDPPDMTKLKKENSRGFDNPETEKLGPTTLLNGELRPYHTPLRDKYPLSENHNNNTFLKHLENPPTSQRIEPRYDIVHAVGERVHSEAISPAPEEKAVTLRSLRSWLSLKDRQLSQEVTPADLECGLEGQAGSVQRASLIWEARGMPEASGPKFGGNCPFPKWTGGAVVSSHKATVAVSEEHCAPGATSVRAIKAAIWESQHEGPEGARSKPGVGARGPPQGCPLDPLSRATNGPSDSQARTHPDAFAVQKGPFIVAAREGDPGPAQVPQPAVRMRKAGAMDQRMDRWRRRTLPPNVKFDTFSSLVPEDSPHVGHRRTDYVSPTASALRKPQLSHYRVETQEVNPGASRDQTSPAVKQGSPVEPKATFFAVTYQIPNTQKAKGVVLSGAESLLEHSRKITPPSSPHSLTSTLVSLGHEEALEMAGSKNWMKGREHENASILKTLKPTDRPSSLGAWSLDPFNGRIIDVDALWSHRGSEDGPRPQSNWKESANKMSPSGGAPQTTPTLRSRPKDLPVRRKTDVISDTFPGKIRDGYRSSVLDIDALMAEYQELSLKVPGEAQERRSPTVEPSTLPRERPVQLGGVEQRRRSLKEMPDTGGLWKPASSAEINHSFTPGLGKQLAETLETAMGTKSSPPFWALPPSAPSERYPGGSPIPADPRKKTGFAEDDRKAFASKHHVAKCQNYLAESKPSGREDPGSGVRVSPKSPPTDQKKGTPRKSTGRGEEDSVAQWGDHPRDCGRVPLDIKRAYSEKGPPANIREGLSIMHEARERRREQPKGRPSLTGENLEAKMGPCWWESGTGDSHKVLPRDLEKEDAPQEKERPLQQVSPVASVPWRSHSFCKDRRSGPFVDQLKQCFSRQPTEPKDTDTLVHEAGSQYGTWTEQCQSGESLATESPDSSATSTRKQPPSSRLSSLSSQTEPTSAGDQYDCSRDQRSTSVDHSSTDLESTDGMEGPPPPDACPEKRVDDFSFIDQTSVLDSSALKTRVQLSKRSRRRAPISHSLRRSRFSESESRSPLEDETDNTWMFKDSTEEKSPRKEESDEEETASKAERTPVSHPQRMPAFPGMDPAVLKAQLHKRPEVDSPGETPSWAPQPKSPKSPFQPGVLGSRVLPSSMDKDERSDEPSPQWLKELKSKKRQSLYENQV

What was measured:
Test in all cases: affinity purification with mass spectrometry; FLAG-tagged CHD N- or C-terminal fragment overexpressed in Expi293 cells; nuclear fraction lysed in 50 mM Tris-HCl, 150 mM NaCl, 0.5% IGEPAL, pH 7.5, with nuclease and sonication; FLAG antibody beads 2 h; washes with 200 mM NaCl; against FLAG empty vector; triplicate
[1] = target: FLAG-tagged CHD5 C-terminus (human) (UniProt Q8TDI0)
[2] = target: FLAG-tagged CHD3 C-terminus (human) (UniProt Q12873)
[3] = target: FLAG-tagged CHD4 C-terminus (human) (UniProt Q14839)
[4] = target: FLAG-tagged CHD9 N-terminus (human) (UniProt Q3L8U1)

- binding [1]: binds
- binding [2]: binds
- binding [3]: binds
Molecule: KIAA1671 (from UniProt Q9BY89 1-1806)

- binding [4]: binds
B1: zinc finger MYM‐type‐containing (ZMYM2) (protein, UniProt Q9UBW7 1-1377)
chain: MDTSSVGGLELTDQTPVLLGSTAMATSLTNVGNSFSGPANPLVSRSNKFQNSSVEDDDDVVFIEPVQPPPPSVPVVADQRTITFTSSKNEELQGNDSKITPSSKELASQKGSVSETIVIDDEEDMETNQGQEKNSSNFIERRPPETKNRTNDVDFSTSSFSRSKVNAGMGNSGITTEPDSEIQIANVTTLETGVSSVNDGQLENTDGRDMNLMITHVTSLQNTNLGDVSNGLQSSNFGVNIQTYTPSLTSQTKTGVGPFNPGRMNVAGDVFQNGESATHHNPDSWISQSASFPRNQKQPGVDSLSPVASLPKQIFQPSVQQQPTKPVKVTCANCKKPLQKGQTAYQRKGSAHLFCSTTCLSSFSHKPAPKKLCVMCKKDITTMKGTIVAQVDSSESFQEFCSTSCLSLYEDKQNPTKGALNKSRCTICGKLTEIRHEVSFKNMTHKLCSDHCFNRYRMANGLIMNCCEQCGEYLPSKGAGNNVLVIDGQQKRFCCQSCVSEYKQVGSHPSFLKEVRDHMQDSFLMQPEKYGKLTTCTGCRTQCRFFDMTQCIGPNGYMEPYCSTACMNSHKTKYAKSQSLGIICHFCKRNSLPQYQATMPDGKLYNFCNSSCVAKFQALSMQSSPNGQFVAPSDIQLKCNYCKNSFCSKPEILEWENKVHQFCSKTCSDDYKKLHCIVTYCEYCQEEKTLHETVNFSGVKRPFCSEGCKLLYKQDFARRLGLRCVTCNYCSQLCKKGATKELDGVVRDFCSEDCCKKFQDWYYKAARCDCCKSQGTLKERVQWRGEMKHFCDQHCLLRFYCQQNEPNMTTQKGPENLHYDQGCQTSRTKMTGSAPPPSPTPNKEMKNKAVLCKPLTMTKATYCKPHMQTKSCQTDDTWRTEYVPVPIPVPVYIPVPMHMYSQNIPVPTTVPVPVPVPVFLPAPLDSSEKIPAAIEELKSKVSSDALDTELLTMTDMMSEDEGKTETTNINSVIIETDIIGSDLLKNSDPETQSSMPDVPYEPDLDIEIDFPRAAEELDMENEFLLPPVFGEEYEEQPRPRSKKKGAKRKAVSGYQSHDDSSDNSECSFPFKYTYGVNAWKHWVKTRQLDEDLLVLDELKSSKSVKLKEDLLSHTTAELNYGLAHFVNEIRRPNGENYAPDSIYYLCLGIQEYLCGSNRKDNIFIDPGYQTFEQELNKILRSWQPSILPDGSIFSRVEEDYLWRIKQLGSHSPVALLNTLFYFNTKYFGLKTVEQHLRLSFGTVFRHWKKNPLTMENKACLRYQVSSLCGTDNEDKITTGKRKHEDDEPVFEQIENTANPSRCPVKMFECYLSKSPQNLNQRMDVFYLQPECSSSTDSPVWYTSTSLDRNTLENMLVRVLLVKDIYDKDNYELDEDTD
